Data set [1] concerns source genes of the peptides in AML. The experiment in a line: Expression profiling of genes encoding the peptides (RNAseq), tumors vs normal tissues. The arrangement: species or system human; key: very highly over-expressed in tumors compared to a panel of normal tissues (+++); highly over-expressed in tumors compared to a panel of normal tissues (++); over-expressed in tumors compared to a panel of normal tissues (+). To be noted: expression score of source gene, tumors (AML) compared to panel of normal tissues.

Data set [2] has as its system other tumor types (measured tumor samples). Nature of the data set: Presentation of the peptides on additional tumor types (LC-MS of HLA ligands). To be noted: for Other relevant organs/diseases: additional tumor types on which the peptide was over-presented on more than 5% of measured tumor samples, or presented on more than 5% with ratio of geometric means tumor vs normal tissues larger than 3. Also noted: species or system human.

For part of these data: Expression grades refer to the transcript from which the peptide derives; gene names, where given, were looked up from the sequence.

“165: peptide found in NPR3 (gene looked up) (SLVDRVAAA; listed as Homo sapiens) [compound 165]”: the “Gene Expression” value in data set [1] is “++”.
Still for that read-out and setting: in the case of “5: peptide found in DNTT (gene looked up) (FLYYEDLVSC; listed as Homo sapiens) [compound 5]” it was “+++”; in that of “182: peptide found in GNA15 (gene looked up) (SLSEYDQCL; listed as Homo sapiens) [compound 182]”, “+++”.
As to “137 (ILAPLAWDL; listed as Homo sapiens) [compound 137]”, the Other relevant organs/diseases entry in data set [2] is “CLL, NHL, Uterine Cancer”.
In the case of “63: peptide found in UHRF1 (gene looked up) (RLNDTIQLL; listed as Homo sapiens) [compound 63]”, in data set [1], the “Gene Expression” value was “++”.
As to “143 (YLLPHILVY; listed as Homo sapiens) [compound 143]”, in data set [2], the Other relevant organs/diseases entry was “RCC, Melanoma”.
On to “43 (AMLDFVSSL; listed as Homo sapiens) [compound 43]”, for which, in data set [2], the Other relevant organs/diseases result was “NHL”.
Same read-out and setting: in the case of “10 (VILDPVHSV; listed as Homo sapiens) [compound 10]” it was “SCLC, NHL, BRCA, Uterine Cancer”; in that of “132 (SLYPVLNFL; listed as Homo sapiens) [compound 132]”, “Urinary bladder cancer, Uterine Cancer”.
“128 (NLSTKTEAV; listed as Homo sapiens) [compound 128]”: in data set [2], the Other relevant organs/diseases result is recorded as “NHL, OC, Uterine Cancer”.
Same read-out and setting: in the case of “93 (SLINDVLAE; listed as Homo sapiens) [compound 93]” it was “CLL”.
On the same count and under the same terms, as for “161 (SLIGIAIAL; listed as Homo sapiens) [compound 161]”, the entry is “BRCA, Esophageal Cancer, Gallbladder Cancer, Bile Duct Cancer”; as for “108 (ELEMNSDLKAQL; listed as Homo sapiens) [compound 108]”, “Uterine Cancer”.
On to “136 (GLSSIETLL; listed as Homo sapiens) [compound 136]”, for which, in data set [2], the Other relevant organs/diseases result is recorded as “BRCA”.
Consider “152 (GLSNHIAAL; listed as Homo sapiens) [compound 152]”, for which the Other relevant organs/diseases entry in data set [2] is “PC, NHL”.
Same read-out and setting: in the case of “32 (SLSDRSWHL; listed as Homo sapiens) [compound 32]” it was “Brain Cancer”.
The same measure, in the same setting: as for “104 (ALIPETTTL; listed as Homo sapiens) [compound 104]”, the entry is “NHL, Melanoma”; as for “172 (KLLWGDIMEL; listed as Homo sapiens) [compound 172]”, “Gallbladder Cancer, Bile Duct Cancer”.
In the case of “155 (ILDLIQVFV; listed as Homo sapiens) [compound 155]”, the Other relevant organs/diseases entry in data set [2] was “RCC, CLL, NHL, Melanoma, Uterine Cancer”.
Still for that read-out and setting: in the case of “168 (VLLFETALL; listed as Homo sapiens) [compound 168]” it was “CLL, BRCA, Urinary bladder cancer”.
In the case of “SEQ ID NO.: 7 (LLWGDIMEL; listed as Homo sapiens)”, the “peptide additionally detected on tumor samples (positive/measured)” value in data set [2] (non-hodgkin lymphomas) was 2/20.
For the substance “121 (VLQAGQYGV; listed as Homo sapiens) [compound 121]”, the Other relevant organs/diseases entry in data set [2] is recorded as “CLL, NHL, Uterine Cancer”.
On the same count and under the same terms, as for “114 (RLAQEAAQV; listed as Homo sapiens) [compound 114]”, the entry is “RCC, OC, Uterine Cancer”.
Still for that read-out and setting: as for “125 (GLFGYLVFL; listed as Homo sapiens) [compound 125]”, the entry is “SCLC, PC”; as for “122 (VLYLEEVLL; listed as Homo sapiens) [compound 122]”, “CLL, NHL, Uterine Cancer”; as for “169 (VLQDPIWLL; listed as Homo sapiens) [compound 169]”, “CLL, NHL”.
As for “35 (VLFEHAVGYAL; listed as Homo sapiens) [compound 35]”, the Other relevant organs/diseases entry in data set [2] is recorded as “CRC, CLL, NHL, BRCA, Melanoma, Urinary bladder cancer”.
As to “103: peptide found in NLRP3 (gene looked up) (ALGDFGIRL; listed as Homo sapiens) [compound 103]”, the “Gene Expression” value in data set [1] is listed as “+++”. The Other relevant organs/diseases entry in data set [2] is listed as “Melanoma, Esophageal Cancer, Gallbladder Cancer, Bile Duct Cancer”.
On to “117 (TILPTILFL; listed as Homo sapiens) [compound 117]”, for which, in data set [2], the Other relevant organs/diseases result is on record as “CLL”.
For the substance “119 (TLTDELAAL; listed as Homo sapiens) [compound 119]”, the Other relevant organs/diseases result in data set [2] is “Gallbladder Cancer, Bile Duct Cancer”.
Same read-out and setting: in the case of “8 (LLWPGAALLV; listed as Homo sapiens) [compound 8]” it was “NHL”; in that of “9 (SLLAYLEQA; listed as Homo sapiens) [compound 9]”, “BRCA”; in that of “142 (GLSDGYGFTT; listed as Homo sapiens) [compound 142]”, “CRC, PC, CLL, NHL, BRCA, Esophageal Cancer, OC, Urinary bladder cancer”.
The same measure, in the same setting: as for “29 (RLGPSVVGL; listed as Homo sapiens) [compound 29]”, the entry is “Melanoma”.
The same measure, in the same setting: as for “24 (GLVELLNRV; listed as Homo sapiens) [compound 24]”, the entry is “NHL”.
For “4: peptide found in DNTT (gene looked up) (FLPDAFVTM; listed as Homo sapiens) [compound 4]”, in data set [1], the “Gene Expression” value is reported as “+++”.
With “86 (HLLGDPMANV; listed as Homo sapiens) [compound 86]”, the Other relevant organs/diseases result in data set [2] was “SCLC, OC”.
On the same count and under the same terms, as for “34 (TLSPWSFLI; listed as Homo sapiens) [compound 34]”, the entry is “NSCLC, Uterine Cancer”.
As for “82 (LLPDNFIAA; listed as Homo sapiens) [compound 82]”, the Other relevant organs/diseases entry in data set [2] is recorded as “Brain Cancer, HCC, PC, NHL, BRCA, Melanoma, Esophageal Cancer, Urinary bladder cancer, Uterine Cancer, Gallbladder Cancer, Bile Duct Cancer”.
On to “166 (VLFPLNLQL; listed as Homo sapiens) [compound 166]”, for which the Other relevant organs/diseases entry in data set [2] is reported as “CLL”.
Same read-out and setting: as for “80 (YLTEALQSI; listed as Homo sapiens) [compound 80]”, the entry is “CLL, NHL”.
As for “SEQ ID NO.: 10 (VILDPVHSV; listed as Homo sapiens)”, the “peptide additionally detected on tumor samples (positive/measured)” value in data set [2] (breast cancers) is on record as 1/18; in data set [2] (non-hodgkin lymphomas) it was 2/20; in data set [2] (non-small cell lung cancers), 1/85; in data set [2] (ovarian cancers), 1/20; in data set [2] (small cell lung cancers), 1/17; in data set [2] (uterine cancers), 1/16.
Regarding “1: peptide found in GNA15 (gene looked up) (LLDSAVYYL; listed as Homo sapiens) [compound 1]”, the “Gene Expression” value in data set [1] was “+++”. For the same substance, the Other relevant organs/diseases entry in data set [2] is given as “Melanoma, Esophageal Cancer, Urinary bladder cancer, Uterine Cancer, Gallbladder Cancer, Bile Duct Cancer”.
In the case of “173 (KMQETLVGL; listed as Homo sapiens) [compound 173]”, in data set [2], the Other relevant organs/diseases result is “Brain Cancer, PrC, NHL, BRCA, Melanoma, Esophageal Cancer, Gallbladder Cancer, Bile Duct Cancer”.
As for “160 (RLVPFLVFV; listed as Homo sapiens) [compound 160]”, the Other relevant organs/diseases entry in data set [2] is listed as “CLL”.
Regarding “127 (KIISALPQL; listed as Homo sapiens) [compound 127]”, the Other relevant organs/diseases result in data set [2] is listed as “CLL, NHL, Esophageal Cancer, OC, Gallbladder Cancer, Bile Duct Cancer”.
The same measure, in the same setting: as for “15 (FIDEEVEDMYL; listed as Homo sapiens) [compound 15]”, the entry is “NHL, Urinary bladder cancer, Gallbladder Cancer, Bile Duct Cancer”.
Take “3: peptide found in DNTT (gene looked up) (ALYDKTKRIFL; listed as Homo sapiens) [compound 3]”: in data set [1], the “Gene Expression” value is on record as “+++”.
In the case of “14 (ALWWGTITL; listed as Homo sapiens) [compound 14]”, in data set [2], the Other relevant organs/diseases entry was “CLL, NHL”.
On the same count and under the same terms, in the case of “138 (ILSDNLRQV; listed as Homo sapiens) [compound 138]” it was “NSCLC, HCC, CLL, NHL, Melanoma, Esophageal Cancer, Urinary bladder cancer”; in that of “23 (GLLQPPVRIV; listed as Homo sapiens) [compound 23]”, “HCC”.
As for “41: peptide found in POLQ (gene looked up) (ALFILPFVSV; listed as Homo sapiens) [compound 41]”, the “Gene Expression” value in data set [1] was “++”.
Consider “116 (TILEILPEL; listed as Homo sapiens) [compound 116]”, for which the Other relevant organs/diseases entry in data set [2] is “RCC, Melanoma, Gallbladder Cancer, Bile Duct Cancer”.
“129 (RMAVLNEQV; listed as Homo sapiens) [compound 129]”: the Other relevant organs/diseases entry in data set [2] was “SCLC, NHL”.
For the substance “183 (SVIGVSPAV; listed as Homo sapiens) [compound 183]”, the Other relevant organs/diseases entry in data set [2] is given as “Brain Cancer, NHL, BRCA, Melanoma”.
Same read-out and setting: as for “141 (GLLPPLRIPELL; listed as Homo sapiens) [compound 141]”, the entry is “PC, CLL, Urinary bladder cancer, Uterine Cancer, Gallbladder Cancer, Bile Duct Cancer”; as for “167 (VLLDVALGL; listed as Homo sapiens) [compound 167]”, “RCC, NHL, BRCA, Melanoma”; as for “157 (ILTETQQGL; listed as Homo sapiens) [compound 157]”, “NSCLC, CRC, NHL, BRCA, Melanoma, Urinary bladder cancer”.
Still for that read-out and setting: in the case of “6 (GLAEVLLAA; listed as Homo sapiens) [compound 6]” it was “NHL, Uterine Cancer”.

For the origin of these results see patent US12036271B2, “Peptides and combination of peptides as targets or active ingredients for use in immunotherapy against AML and other cancers” (Immatics Biotechnologies GmbH, priority 2016, dated 2024).
